Results deposited as PubChem BioAssay AID1159578 (Peter MacCallum Cancer Centre, 2015)

Test: 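Knock-downs that alter how fast lymphatic endothelial cells migrate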 (primary screen)
Cells: human lymphatic endothelial cells
Reagents: siRNA pool against human genes, 40 nM
Timing: 48 h after transfection
Measured: 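Cells stained with dye and imaged after a scratch; covered wound area and nuclei counted, duplicates averaged, migration set against mock wells and turned into a robust z-score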
Reading the numbers: migration robust z-score: higher = faster migration into the scratch; migration relative to mock: higher = more scratch area covered than mock; nuclei per well: higher = more cells in the well
Call rule: 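Pools averaging fewer than 3300 nuclei are never called; remaining pools count as changed when migration robust z lies outside -2 to 2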
Meaning of the calls: active = migration changed; inactive = no migration change, or too few cells
The deposit covers about 18,000 reagents; this is an unselected part. Over the whole deposit, about 1,030 (5.7%) are marked active. 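Inactive calls also include pools with fewer than 3300 nuclei, whose migration was not assessed.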 Raw values are not corrected between plates. Unmarked entries are inactive. Reagents against one gene are numbered here.

| Target gene | pool no. | migration robust z-score | migration class with cell-count check | migration relative to mock | nuclei per well, duplicate mean |
| --- | --- | --- | --- | --- | --- |
| CALR3 | 1 | 0.64 | migration z between -2 and 2; enough cells | 1.05 | 5788 |
| EPHB3 | 1 | 1.4 | migration z between -2 and 2; enough cells | 1.08 | 5029 |
| BTNL8 | 1 | 0.59 | migration z between -2 and 2; enough cells | 1.04 | 6536 |
| TKT | 1 | -0.8 | migration z between -2 and 2; enough cells | 0.65 | 6009 |
| NPY5R | 1 | -0.21 | migration z between -2 and 2; enough cells | 0.76 | 5854 |
| FTSJ3 | 1 | -0.94 | migration z between -2 and 2; enough cells | 0.64 | 6204 |
| FTO | 1 | -0.22 | migration z between -2 and 2; enough cells | 0.83 | 5300 |
| EPOR | 1 | -2.88 (active) | migration z below -2; enough cells | 0.25 | 4359 |
| IFNW1 | 1 | -0.2 | migration z between -2 and 2; enough cells | 0.84 | 5688 |
| OR2A42 | 1 | 0.27 | migration z between -2 and 2; enough cells | 0.95 | 4681 |
| SELENOM | 1 | -0.52 | migration z between -2 and 2; enough cells | 0.75 | 5898 |
| RANBP17 | 1 | 0.31 | migration z between -2 and 2; enough cells | 0.96 | 6195 |
| PHYKPL | 1 | 0.83 | migration z between -2 and 2; enough cells | 0.96 | 4648 |
| CRHBP | 1 | 0.62 | migration z between -2 and 2; enough cells | 1.04 | 5928 |
| GPR52 | 1 | -0.39 | migration z between -2 and 2; enough cells | 0.73 | 6221 |
| TSPAN9 | 1 | 0.83 | migration z between -2 and 2; enough cells | 1.1 | 6628 |
| PNOC | 1 | 0.68 | migration z between -2 and 2; enough cells | 1.06 | 5520 |
| UGT1A8 | 1 | 0.29 | migration z between -2 and 2; enough cells | 0.86 | 6534 |
| CAMTA1 | 1 | 0.2 | migration z between -2 and 2; enough cells | 0.84 | 4699 |
| PUSL1 | 1 | -0.73 | migration z between -2 and 2; enough cells | 0.66 | 5706 |
| FGD4 | 1 | 0.53 | migration z between -2 and 2; enough cells | 1.02 | 5346 |
| LY86 | 1 | -1.43 | migration z between -2 and 2; enough cells | 0.52 | 4318 |
| EPS8L3 | 1 | -0.44 | migration z between -2 and 2; enough cells | 0.77 | 5484 |
| PTPRM | 1 | 0.16 | migration z between -2 and 2; enough cells | 0.84 | 5424 |
| GET3 | 1 | 1.38 | migration z between -2 and 2; enough cells | 1.07 | 6084 |
| POLE2 | 1 | 0.47 | migration z between -2 and 2; enough cells | 0.9 | 5268 |
| TUSC3 | 1 | 0 | migration z between -2 and 2; enough cells | 0.8 | 6482 |
| CREB3 | 1 | -0.42 | migration z between -2 and 2; enough cells | 0.73 | 4616 |
| RPL30 | 1 | -0.66 | migration z between -2 and 2; enough cells | 0.72 | 4004 |
| NONO | 1 | 0.34 | migration z between -2 and 2; enough cells | 0.98 | 5702 |
| KLHL34 | 1 | -0.08 | migration z between -2 and 2; enough cells | 0.86 | 6609 |
| CSH2 | 1 | 1.46 | migration z between -2 and 2; enough cells | 1.26 | 6034 |
| KRTCAP3 | 1 | 2.35 (active) | migration z above 2; enough cells | 1.5 | 6748 |
| FOS | 1 | -0.44 | migration z between -2 and 2; enough cells | 0.72 | 5506 |
| LENEP | 1 | -0.88 | migration z between -2 and 2; enough cells | 0.66 | 6130 |
| DBX1 | 1 | -1.67 | migration z between -2 and 2; enough cells | 0.46 | 5988 |
| RPUSD1 | 1 | -0.02 | migration z between -2 and 2; enough cells | 0.8 | 6214 |
| AKR1C2 | 1 | -0.16 | migration z between -2 and 2; enough cells | 0.78 | 6007 |
| CFAP46 | 1 | -1.2 | migration z between -2 and 2; enough cells | 0.58 | 6122 |
| CFAP46 | 2 | -0.4 | migration z between -2 and 2; enough cells | 0.78 | 5832 |
| GALK1 | 1 | -0.13 | migration z between -2 and 2; enough cells | 0.78 | 5190 |
| KLHL22 | 1 | -0.7 | migration z between -2 and 2; enough cells | 0.7 | 5866 |
| KIF18A | 1 | -0.86 | under 3300 nuclei; migration not judged | 0.64 | 3232 |
| MIR99AHG | 1 | 2.26 (active) | migration z above 2; enough cells | 1.48 | 4649 |
| PTP4A3 | 1 | 0.75 | migration z between -2 and 2; enough cells | 0.95 | 5284 |
| DHX35 | 1 | -0.2 | migration z between -2 and 2; enough cells | 0.84 | 6388 |
| DEXI | 1 | -1.26 | migration z between -2 and 2; enough cells | 0.56 | 5861 |
| STAB2 | 1 | 0.01 | migration z between -2 and 2; enough cells | 0.88 | 5010 |
| LRIT3 | 1 | 1.15 | migration z between -2 and 2; enough cells | 1.19 | 5485 |
| SMG7 | 1 | 0.59 | migration z between -2 and 2; enough cells | 1.03 | 5074 |
| DNAJC28 | 1 | 2.08 (active) | migration z above 2; enough cells | 1.42 | 5190 |
| SLC46A3 | 1 | -1.23 | migration z between -2 and 2; enough cells | 0.57 | 5444 |
| UNC5B | 1 | -0.49 | migration z between -2 and 2; enough cells | 0.71 | 3382 |
| CHTOP | 1 | -0.8 | migration z between -2 and 2; enough cells | 0.68 | 7499 |
| SLCO4C1 | 1 | -1.19 | migration z between -2 and 2; enough cells | 0.57 | 3814 |
| TPGS2 | 1 | -1.05 | migration z between -2 and 2; enough cells | 0.61 | 4054 |
| SBSN | 1 | 0.83 | migration z between -2 and 2; enough cells | 1.1 | 5926 |

Not a retest: an excerpt of the list.
| Target gene | pool no. | migration robust z-score | migration class with cell-count check | migration relative to mock | nuclei per well, duplicate mean |
| --- | --- | --- | --- | --- | --- |
| GALK1 | 1 | -0.13 | migration z between -2 and 2; enough cells | 0.78 | 5190 |
| KLHL22 | 1 | -0.7 | migration z between -2 and 2; enough cells | 0.7 | 5866 |
| KIF18A | 1 | -0.86 | under 3300 nuclei; migration not judged | 0.64 | 3232 |
| MIR99AHG | 1 | 2.26 (active) | migration z above 2; enough cells | 1.48 | 4649 |
| PTP4A3 | 1 | 0.75 | migration z between -2 and 2; enough cells | 0.95 | 5284 |
| DHX35 | 1 | -0.2 | migration z between -2 and 2; enough cells | 0.84 | 6388 |
